Reference: PubChem BioAssay AID602441 (National Center for Advancing Translational Sciences (NCATS), 2012)
The whole screen tested about 1,300 compounds, of which fewer than 10 were called active. Another 9% or so got no clear call; they are omitted. Calls follow the shape of the dose curve; as a rule, active = well fitted curve in the direction sought with a large enough effect; inconclusive = small, poorly fitted or top-dose-only effect, or another doubt; inactive = no such curve, though single readings can be large or run the other way. This is one part of the list.

Experiment: qHTS for antagonists of the Thyroid Stimulation Hormone Receptor: Hit Validation in Parental Cell Line; as to activity change, negative = inhibition: 0% is about no effect
Conditions: parental HEK293 cells lacking TSHR, counter-screen; series mostly up to 56.9 µM; activity change, negative = inhibition: at the top concentration
Description: The thyroid-stimulating hormone receptor (TSHR) is a member of the 7 trans-membrane-spanning receptor (7TMR) family of cell surface receptors. TSHR-mediated hyperthyroidism is important in thyroid pathology. The development of small molecule antagonists of TSHR may lead to therapeutic approaches for TSHR-mediated hyperthyroidism caused by constitutively activating mutations or stimulating auto-antibodies associated with Graves' disease. Graves' disease is the leading cause of hyperthyroidism and is caused by autoantibodies that stimulate TSHR (TsAbs) causing thyroid growth and unregulated overproduction of thyroid hormones and existing treatments have liabilities (agranulocytosis). In addition, TSHRs are known to be expressed in multiple extrathyroidal tissues including bone, brain, kidney, testis, fat and cells of the immune system but the role of the TSHR in these tissues is not clear. Therefore, TSHR antagonists/inverse agonists could be used as probes of extrathyroidal TSHR function. Finally, TSHR inverse agonists, which are a subclass of antagonists that inhibit agonist-independent (or basal or constitutive) TSHR signaling, could be used to inhibit TSH-independent signaling in patients with recurrent or metastatic thyroid cancer who are receiving thyroid hormone to suppress TSH.
In collaboration between scientist from the NCGC and the NIDDK, a miniaturized HTRF high-throughput screen was developed. It's a cell based assay, where an anti cAMP antibody contains a fluorescent cryptate tag (excitation 337 nm; emission 620 nm) and the acceptor is cAMP-d2 (excitation 620 nm; emission 665 nm). When antibody and cAMP-d2 interact and are excited by a 337 nm light, a FRET occurs resulting in emission at 665 nm. The assay is competition between cAMP-d2 and cAMP (from the cell lysate). The homogeneous protocol allows for one step dispense after stimulation that is automation friendly. This is a hit validation assay in a counterscreen using parental HEK 293 cells lines.
NIH Chemical Genomics Center [NCGC]
NIH Molecular Libraries Probe Centers Network [MLPCN]
Assay Provider: Marvin Gershengorn, NIDDK
An anti cAMP antibody contains a fluorescent cryptate tag (excitation 337 nm; emission 620 nm) and the acceptor is cAMP-d2 (excitation 620 nm; emission 665 nm). When antibody and cAMP-d2 interact and are excited by a 337 nm light, a FRET occurs resulting in emission at 665 nm. The assay is competition between cAMP-d2 and cAMP (from the cell lysate). The homogeneous protocol allows for one step dispense after stimulation that is automation friendly. This assay uses parental HEK-EM 293 cells
Potency is read from the fitted curve at half-maximal effect.

Which “activity change, negative = inhibition” value does the source give for `O=C(NCCN1CCOCC1)c1c(Cl)cccc1Cl` here?
The value was inactive: 3.93%.

For `N=c1oc2ccccc2cc1C(=O)NC1CCCCCC1`, which “activity change, negative = inhibition” value is on record?
Its value is inactive: 2.24%.

For `O=C(Nc1c(F)cc(F)cc1Br)c1cc(-c2ccc(O)cc2)on1`, which “activity change, negative = inhibition” value is on record?
Its value is inactive: -6.63%.

Which “activity change, negative = inhibition” value does the source give for `N#C/C(=C\c1ccc(Oc2ccc(C(F)(F)F)cc2[N+](=O)[O-])cc1)c1nc2ccccc2[nH]1` here?
The value was inactive: -3.12%.

For `COc1cccc(CNC(=O)c2nnn(CC(=O)Nc3cc(Cl)ccc3C)c2N)c1`, which “activity change, negative = inhibition” value is on record?
Its value is inactive: -0.529%.

Which “activity change, negative = inhibition” value does the source give for `CC1Cc2ccccc2N1C(=O)COC(=O)/C=C/c1cccc(F)c1` (stereo unspecified) here?
The value was inactive: -1.49%.

For `O=C1NC(=S)N(C(=O)c2ccc(F)cc2)/C1=C/c1ccccc1`, which “activity change, negative = inhibition” value is on record?
The value was inactive: -4.61%.

Which “activity change, negative = inhibition” value does the source give for `Cc1ccc(OC(F)F)c(NC(=O)Nc2cccc(C(F)(F)F)c2)c1` here?
The value was inactive: -4.88%.

Which “activity change, negative = inhibition” value does the source give for `COc1ccc(NS(=O)(=O)c2cc(-c3cnc(C4CC4)o3)ccc2C)cc1` here?
Its value is inactive: -1.1%.

For `O=[N+]([O-])c1ccc(S(=O)(=O)c2ccccc2)nc1`, which “activity change, negative = inhibition” value is on record?
Its value is inactive: -8.08%.

For `N/C(=N\OC(=O)Nc1ccccc1)c1cccc(C(F)(F)F)c1`, which “activity change, negative = inhibition” value is on record?
Its value is inactive: -2.45%.

With `N#Cc1c(C(F)(F)F)cc(-c2ccc(Cl)cc2)[nH]c1=O` as the compound, how does the “activity change, negative = inhibition” value read?
Its value is inactive: -0.329%.

Which “activity change, negative = inhibition” value does the source give for `Cc1ccc(NC(=O)C(C)c2ccc(-c3ccccc3)c(F)c2)cc1` (stereo unspecified) here?
The value was inactive: 0.0015%.

For `O=C(Nc1ccncc1)c1cccc(S(=O)(=O)N2CCc3ccccc32)c1`, which “activity change, negative = inhibition” value is on record?
The value was inactive: -2.96%.

With `O=[N+]([O-])c1cc(S(=O)(=O)C(F)(F)F)ccc1Sc1nc2ccccc2s1` as the compound, how does the “activity change, negative = inhibition” value read?
The value was inactive: -6.57%.

Which “activity change, negative = inhibition” value does the source give for `O=C(Nc1nc(-c2ccc(F)cc2)cs1)C1CCN(C(=O)c2ccc(F)cc2)CC1` here?
The value was inactive: -8.68%.

Which “activity change, negative = inhibition” value does the source give for `CC(C)Oc1ccc(C(=O)Nc2ccc(Cl)c(S(=O)(=O)Nc3ccc(Cl)cc3)c2)cc1` here?
Its value is inactive: 0.687%.

For `Cc1ccccc1NC(=O)CCc1c(C)nn(-c2ccc(N3CCOCC3)nn2)c1C`, which “activity change, negative = inhibition” value is on record?
The value was inactive: 4.76%.

Which “activity change, negative = inhibition” value does the source give for `COc1cc(/C=N/Nc2ccc(C(=O)O)cc2)ccc1O` here?
The value was inactive: -5.88%.

For `COc1ccc(C(C(=O)NC(C)(C)C)N(CCc2ccccc2)C(=O)CCC(=O)Nc2cc(C)on2)cc1` (stereo unspecified), which “activity change, negative = inhibition” value is on record?
The value was inactive: 2.28%.

With `CNc1c(NC(=O)c2ccc3c(c2)OCO3)c(=O)oc2ccccc12` as the compound, how does the “activity change, negative = inhibition” value read?
Its value is inactive: 3.93%.

With `Cc1ccccc1Oc1cc(-n2ncc(Cl)c(Cl)c2=O)ncn1` as the compound, how does the “activity change, negative = inhibition” value read?
Its value is inactive: 7.91%.

With `O=C(NC(=S)Nc1ccc(C(=O)N2CCOCC2)cc1)c1ccc([N+](=O)[O-])cc1` as the compound, how does the “activity change, negative = inhibition” value read?
The value was inactive: 2.72%.

With `COc1ccc(CNC(=O)C2CCCN2C(=O)NCc2ccccc2)cc1` (stereo unspecified) as the compound, how does the “activity change, negative = inhibition” value read?
Its value is inactive: -3.03%.

Which “activity change, negative = inhibition” value does the source give for `CCn1nc(C)c(CN2CCCC(CNS(=O)(=O)c3ccc(OC)cc3)C2)c1C` (stereo unspecified) here?
The value was inactive: -4.08%.

For `COc1cc(NC(=O)Cn2nc(C(F)(F)F)c(Br)c2C)cc([N+](=O)[O-])c1`, which “activity change, negative = inhibition” value is on record?
Its value is inactive: -2.91%.

For `Cc1cccc(NC(=S)NCC(C)CSc2ccc(Cl)cc2)c1` (stereo unspecified), which “activity change, negative = inhibition” value is on record?
The value was inactive: 1.48%.

Which Potency does the source give for `CCN(CC)c1ccc2nc3ccccc3[n+](CC)c2c1` here?
The Potency was active: 13.5 µM.

For `O=C(NCC1CCCO1)c1cccc2c1C(=O)c1ccc(N3CCC(Cc4ccccc4)CC3)cc1S2(=O)=O` (stereo unspecified), which “activity change, negative = inhibition” value is on record?
The value was inactive: -10.6%.

Which “activity change, negative = inhibition” value does the source give for `COc1ccc(S(=O)(=O)N2CCN(c3cccc(C)c3C)CC2)cc1` here?
The value was inactive: -1.34%.

With `O=[N+]([O-])c1ccc(COc2cccc(CNc3ccc(F)cc3)c2)cc1` as the compound, how does the “activity change, negative = inhibition” value read?
The value was inactive: -0.275%.

Which “activity change, negative = inhibition” value does the source give for `O=C(/C=C/c1ccc(Cl)cc1Cl)NCCSCc1ccccc1` here?
The value was inactive: -4.87%.

Which “activity change, negative = inhibition” value does the source give for `CCOc1ccccc1NC(=O)CSc1nc2ccccc2c(=O)n1CC1CCCO1` (stereo unspecified) here?
Its value is inactive: 3.86%.

With `COc1ccc(C2c3ccc(O)cc3Oc3ncn(Cc4ccco4)c(=N)c32)cc1` (stereo unspecified) as the compound, how does the “activity change, negative = inhibition” value read?
The value was inactive: -0.978%.

With `CCCN1C(=O)c2ccc(C(=O)Nc3cc(C)ccc3O)cc2C1=O` as the compound, how does the “activity change, negative = inhibition” value read?
The value was inactive: 0.657%.

With `O=C(Nc1ccncc1)c1ccc(Cl)c(S(=O)(=O)N2CCc3ccccc32)c1` as the compound, how does the “activity change, negative = inhibition” value read?
Its value is inactive: -4.42%.

Which “activity change, negative = inhibition” value does the source give for `Cc1cccc(N(C(=O)c2nsc(Cl)c2Cl)C(C(=O)NC2CCCC2)c2ccc(O)cc2)c1C` (stereo unspecified) here?
Its value is inactive: -4.34%.

Which “activity change, negative = inhibition” value does the source give for `Cc1ccc(Cl)cc1NC(=O)c1cc2ccccc2cc1O` here?
Its value is inactive: -7.7%.

Which “activity change, negative = inhibition” value does the source give for `Cc1cccc(CC(=O)NCC(=O)NCc2cc(=O)n(C)c(=O)n2C)c1` here?
The value was inactive: 7.15%.

For `O=C(Nc1nc2c(s1)CCCC2)c1ccc2ncsc2c1`, which “activity change, negative = inhibition” value is on record?
The value was inactive: -5.44%.

Which “activity change, negative = inhibition” value does the source give for `c1ccc(C(c2nnnn2Cc2ccco2)N2CCN(c3nc4ccccc4s3)CC2)cc1` (stereo unspecified) here?
Its value is inactive: -2.24%.

For `CCCn1c(=O)c2[nH]c(C3CCCC3)nc2n(CCC)c1=O`, which “activity change, negative = inhibition” value is on record?
The value was inactive: -2.79%.

For `COCC1CCCCN1C(=O)C1CCN(c2nc(-c3ccccc3)nc3c2CCC3)CC1` (stereo unspecified), which “activity change, negative = inhibition” value is on record?
The value was inactive: -0.886%.

For `c1ccc2c(COn3nnc4ccccc43)cccc2c1`, which “activity change, negative = inhibition” value is on record?
The value was inactive: 1.54%.

With `CC(C)C1Nc2c(O)cc(Cl)c([N+](=O)[O-])c2C2C=CCC21` (stereo unspecified) as the compound, how does the “activity change, negative = inhibition” value read?
The value was inactive: 3.61%.

For `CCCC(=O)N(C1CC(C)C(C#N)(C#N)C1(C#N)C#N)N(C)C` (stereo unspecified), which “activity change, negative = inhibition” value is on record?
Its value is inactive: -9.26%.

For `COc1cccc(OC)c1C(=O)Nc1sc2c(c1C#N)CCC2`, which “activity change, negative = inhibition” value is on record?
The value was inactive: 1.03%.

With `CSCCCNC(=O)c1ccc(OC2CCN(C(=O)c3cccnc3)CC2)cc1` as the compound, how does the “activity change, negative = inhibition” value read?
Its value is inactive: 2.79%.

With `O=C(NN=C1CCCC1)c1cc(Cl)cc(Cl)c1O` as the compound, how does the “activity change, negative = inhibition” value read?
Its value is inactive: 0.126%.

With `COc1ccc(NC(=O)CCC2CCCCC2)cc1S(=O)(=O)N1CCCCC1` as the compound, how does the “activity change, negative = inhibition” value read?
Its value is inactive: 1.02%.

Which “activity change, negative = inhibition” value does the source give for `CC(=O)c1cccc(NC(=O)c2sc3nc4n(c(=O)c3c2C)CCCC4)c1` here?
The value was inactive: 3.67%.
